Reference: PubChem BioAssay AID686938 (Drosophila RNAi Screening Center, 2013)
In all, the deposit lists about 23,000 reagents; shown is a random part of those that have a named target and a result. In the full data, 75 (0.33%) are marked active. 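Raw plate signals without normalisation; calls rest on plate z-scores that were not deposited; ratio present for only 364 wells.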 Reagents against one gene are numbered here. A plus sign joins genes that one reagent is predicted to hit. Not given: the dose of the treatment.

Aim: 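Fly genes required for calcium entry once internal stores are emptied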 (primary screen)
System: Drosophila S2R+ cells
Knock-down reagent: long dsRNA against Drosophila genes, about 0.25 µg dsRNA per well, roughly 10,000 cells
Timing: 5 days of knock-down before the calcium assay
Treatment: thapsigargin (SERCA pump blocker) to empty calcium stores; entry signal taken 4 min after adding it
Detection: 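Duplicate raw fluo-4 intensities per well from a plate reader, at rest and four minutes after thapsigargin emptied calcium stores; entry-to-rest ratio filled for only some wells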
Direction: calcium entry signal: higher = stronger calcium signal after store depletion; entry to resting ratio: higher = more calcium entry relative to resting level; resting calcium signal: higher = higher resting calcium signal
Rule for the call: 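Hit if the duplicate-averaged plate z-score for entry over resting signal is under −3; wells with weak total dye signal (Fmax z < −2) or more than 5 off-targets removed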
Calls: active = strongly reduced calcium entry; inactive = no strong reduction

| Target gene | reagent no. | calcium entry signal, replicate 1 (fluorescence units) | calcium entry signal, replicate 2 (fluorescence units) | entry to resting ratio | resting calcium signal, replicate 1 (fluorescence units) | resting calcium signal, replicate 2 (fluorescence units) | Outcome |
| --- | --- | --- | --- | --- | --- | --- | --- |
| vtd (verthandi) | 1 | 3.51e7 | 2.66e7 | – | 2.21e7 | 1.61e7 | inactive |
| Phae2 (Phaedra 2) | 1 | 3.78e7 | 2.59e7 | – | 1.65e7 | 1.26e7 | inactive |
| CG17562 | 1 | 2.34e7 | 2.23e7 | – | 1.21e7 | 3.70e7 | inactive |
| Acbp3 (Acyl-CoA binding protein 3) | 1 | 2.15e7 | 4.26e7 | – | 1.06e7 | 1.97e7 | inactive |
| CG17404 | 1 | 3.52e7 | 1.97e7 | – | 1.69e7 | 1.12e7 | inactive |
| Qtzl (Quetzalcoatl) | 1 | 4.97e7 | 5.09e7 | – | 2.28e7 | 1.99e7 | inactive |
| Smyd3 (SET and MYND domain containing, class 3) | 1 | 5.61e7 | 5.23e7 | 2.1 | 2.67e7 | 2.25e7 | inactive |
| Ir100a (Ionotropic receptor 100a) | 1 | 4.79e7 | 3.35e7 | 2.1 | 2.28e7 | 1.70e7 | inactive |
| KLHL18 (Kelch like family member 18) | 1 | 2.88e7 | 4.09e7 | – | 1.35e7 | 1.71e7 | inactive |
| CG17751 | 1 | 4.43e7 | 4.21e7 | – | 3.55e7 | 2.07e7 | inactive |
| CG17751 | 2 | 2.73e7 | 3.79e7 | – | 1.28e7 | 1.54e7 | inactive |
| Muc68D (Mucin 68D) | 1 | 4.07e7 | 2.76e7 | – | 2.77e7 | 1.25e7 | inactive |
| CG3704 | 1 | 4.43e7 | 6.60e7 | 1.9 | 2.29e7 | 2.64e7 | inactive |
| CG3704 | 2 | 4.05e7 | 6.00e7 | 1.9 | 2.09e7 | 2.36e7 | inactive |
| CG11456 | 1 | 4.18e7 | 4.55e7 | – | 1.94e7 | 3.17e7 | inactive |
| RpS27 (Ribosomal protein S27) | 1 | 1.41e7 | 1.57e7 | – | 1.01e7 | 1.06e7 | inactive |
| Mettl14 (Methyltransferase like 14) | 1 | 5.04e7 | – | – | 2.53e7 | – | inactive |
| CG14650 | 1 | 4.32e7 | 3.87e7 | – | 1.77e7 | 1.74e7 | inactive |
| CG12911 | 1 | 3.11e7 | 3.08e7 | – | 1.57e7 | 1.41e7 | inactive |
| CG30371 | 1 | 4.19e7 | 4.07e7 | – | 1.94e7 | 1.79e7 | inactive |
| Gr64a (Gustatory receptor 64a) | 1 | 3.00e7 | 2.52e7 | – | 1.58e7 | 1.23e7 | inactive |
| Nep4 (Neprilysin 4) | 1 | 4.25e7 | 3.53e7 | – | 2.20e7 | 1.65e7 | inactive |
| CG2887 | 1 | 3.33e7 | 5.26e7 | – | 1.62e7 | 2.15e7 | inactive |
| Cda5 (Chitin deacetylase-like 5) | 1 | 1.84e7 | 4.77e7 | – | 1.02e7 | 2.45e7 | inactive |
| Cda5 (Chitin deacetylase-like 5) | 2 | 3.15e7 | 3.37e7 | – | 1.94e7 | 1.57e7 | inactive |
| Cda5 (Chitin deacetylase-like 5) | 3 | 3.87e7 | 3.07e7 | – | 1.78e7 | 1.48e7 | inactive |
| Cda5 (Chitin deacetylase-like 5) | 4 | 3.69e7 | 2.13e7 | – | 1.58e7 | 1.13e7 | inactive |
| Lpin (Lipin) | 1 | 4.63e7 | 3.16e7 | – | 1.93e7 | 1.56e7 | inactive |
| Ldh (Lactate dehydrogenase) | 1 | 2.84e7 | 3.75e7 | – | 1.55e7 | 1.85e7 | inactive |
| Unc50 (Unc50 RNA binding protein) | 1 | 4.21e7 | 3.66e7 | – | 2.13e7 | 1.80e7 | inactive |

3 successive records from above, quoted:
| Target gene | reagent no. | calcium entry signal, replicate 1 (fluorescence units) | calcium entry signal, replicate 2 (fluorescence units) | entry to resting ratio | resting calcium signal, replicate 1 (fluorescence units) | resting calcium signal, replicate 2 (fluorescence units) | Outcome |
| --- | --- | --- | --- | --- | --- | --- | --- |
| Acbp3 (Acyl-CoA binding protein 3) | 1 | 2.15e7 | 4.26e7 | – | 1.06e7 | 1.97e7 | inactive |
| CG17404 | 1 | 3.52e7 | 1.97e7 | – | 1.69e7 | 1.12e7 | inactive |
| Qtzl (Quetzalcoatl) | 1 | 4.97e7 | 5.09e7 | – | 2.28e7 | 1.99e7 | inactive |

More entries:
| Target gene | reagent no. | calcium entry signal, replicate 1 (fluorescence units) | calcium entry signal, replicate 2 (fluorescence units) | entry to resting ratio | resting calcium signal, replicate 1 (fluorescence units) | resting calcium signal, replicate 2 (fluorescence units) | Outcome |
| --- | --- | --- | --- | --- | --- | --- | --- |
| CG11703 | 1 | 3.43e7 | 2.62e7 | – | 1.72e7 | 1.24e7 | inactive |
| HP1b (Heterochromatin Protein 1b) | 1 | 1.46e7 | 3.95e7 | – | 8.79e6 | 1.93e7 | inactive |
| Larp7 (La related protein 7) | 1 | 3.65e7 | 9.01e7 | – | 1.70e7 | 3.31e7 | inactive |
| Pof (Painting of fourth) | 1 | 4.54e7 | – | – | 2.33e7 | – | inactive |
| Mpcp2 | 1 | 5.37e7 | 6.49e7 | – | 2.30e7 | 2.59e7 | inactive |
| CG43317 | 1 | 2.95e7 | 4.08e7 | – | 1.45e7 | 5.33e7 | inactive |
| Cyp6t2Psi (pseudo) | 1 | 1.49e7 | 2.92e7 | – | 6.94e6 | 2.56e7 | inactive |
| CG12164 | 1 | 4.34e7 | – | – | 2.20e7 | – | inactive |
| CG12164 | 2 | 4.14e7 | 3.79e7 | – | 2.31e7 | 1.86e7 | inactive |
| CG14564 | 1 | 3.29e7 | 5.27e7 | – | 1.57e7 | 2.31e7 | inactive |
| CG14564 | 2 | 3.39e7 | 3.28e7 | – | 1.60e7 | 1.62e7 | inactive |
| inaD (inactivation no afterpotential D) | 1 | 4.30e7 | 5.10e7 | – | 2.15e7 | 2.27e7 | inactive |
| asRNA:CR43470 + CG14830 | 1 | 2.44e7 | 3.75e7 | – | 1.27e7 | 1.76e7 | inactive |
| Eip78C (Ecdysone-induced protein 78C) | 1 | 1.87e7 | 3.01e7 | – | 1.12e7 | 1.69e7 | inactive |
| Eip78C (Ecdysone-induced protein 78C) | 2 | 4.40e7 | 4.07e7 | – | 2.03e7 | 1.66e7 | inactive |
| RpL21 (Ribosomal protein L21) | 1 | 1.41e7 | 1.22e7 | – | 9.84e6 | 8.99e6 | inactive |
| MED25 (Mediator complex subunit 25) | 1 | 2.33e7 | 2.41e7 | – | 1.55e7 | 1.34e7 | inactive |
| MED25 (Mediator complex subunit 25) | 2 | 7.73e7 | 1.56e7 | – | 3.27e7 | 7.56e6 | inactive |
| robls54B (roadblock similar 54B) | 1 | 3.24e7 | 4.05e7 | – | 1.58e7 | 2.13e7 | inactive |
| CSN5 (COP9 signalosome subunit 5) | 1 | 3.23e7 | 2.98e7 | – | 1.46e7 | 1.27e7 | inactive |
| CSN5 (COP9 signalosome subunit 5) | 2 | 3.34e7 | 4.58e7 | – | 1.56e7 | 2.46e7 | inactive |
| CG6567 + CG4565 | 1 | 4.07e7 | 3.72e7 | – | 1.96e7 | 1.93e7 | inactive |
| CG3708 | 1 | 3.19e7 | 5.13e7 | 2.1 | 1.53e7 | 1.91e7 | inactive |
| Ir60b (Ionotropic receptor 60b) | 1 | 3.60e7 | 4.85e7 | – | 1.94e7 | 2.25e7 | inactive |
| CG17994 | 1 | 4.91e7 | 4.84e7 | – | 2.31e7 | 2.35e7 | inactive |
| CG34015 | 1 | 3.47e7 | 3.66e7 | – | 1.72e7 | 1.68e7 | inactive |
| Takl1 (Tak1-like 1) | 1 | 3.64e7 | 2.80e7 | – | 1.84e7 | 1.39e7 | inactive |
| a10 (antennal protein 10) | 1 | 3.34e7 | 4.76e7 | – | 1.70e7 | 1.81e7 | inactive |
